Where a name gives a salt, the structure may show the parent alone. The list shows a part of the results. This data set is noisy: repeats of one test often differ as much as different tests do.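 Free-swimming zebrafish larvae were scored for O-bend response probability to dark flashes (naive: first five; training: remaining flashes of four 60-flash blocks; test: later 60-flash block) and for turning toward alternating leftward/rightward LED motion (OMR). Six treated larvae were compared with sixty 0.1% DMSO controls; |SSMD|≥2 defined a hit.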

Common to all, as to settings: 10 µM; pre-incubation: 30-90 min
Experiment [1] has as its system Danio rerio larvae (5 dpf, TLF). Kind of experiment: OMR-Perf (SSMD vs DMSO vehicle); higher = higher than vehicle (e.g. higher dark-flash O-bend response probability, or better optomotor performance).
For experiment [2] the test system is unchanged. Kind of experiment: Prob-Test (SSMD vs DMSO vehicle); higher = higher than vehicle (e.g. higher dark-flash O-bend response probability, or better optomotor performance).
Experiment [3] shares this test system. The experiment in a line: Prob-Naive (SSMD vs DMSO vehicle); higher = higher than vehicle (e.g. higher dark-flash O-bend response probability, or better optomotor performance).
For experiment [4] the test system is unchanged. Kind of experiment: Prob-Train (SSMD vs DMSO vehicle); higher = higher than vehicle (e.g. higher dark-flash O-bend response probability, or better optomotor performance).

With `C=CCOc1ccccc1OCC(O)CNC(C)C` (stereo unspecified) [Oxprenolol HCl], the OMR-Perf in experiment [1] is -0.602. In experiment [2], this molecule came in with a Prob-Test of 0.115. Besides, in experiment [3], the Prob-Naive amounted to 0.0912. In addition, in experiment [4], the Prob-Train amounted to 0.062.

In the case of `Cc1ccc(S(=O)(=O)Cc2nc(-c3ccc(C(=O)NCc4cccnc4)cc3)oc2C)cc1`, the OMR-Perf in experiment [1] is 0.22. This molecule displayed a Prob-Test in experiment [2] of -0.712. Further, the Prob-Naive in experiment [3] is -0.252. The same molecule registered a Prob-Train in experiment [4] of -1.06.

For `O=C(O)c1cn(C2CC2)c2cc(N3CCNCC3)c(F)cc2c1=O` [Ciprofloxacin (Cipro)], the OMR-Perf in experiment [1] amounted to 0.0265. Moreover, in experiment [2], the Prob-Test is -0.0553. Moreover, in experiment [3], the Prob-Naive was -0.142. The Prob-Train in experiment [4] was -0.39.

`CC[C@H](CO)Nc1nc(NCc2ccccc2)c2ncn(C(C)C)c2n1` [Roscovitine (Seliciclib,CYC202)] yielded an OMR-Perf in experiment [1] of -0.337. Besides, in experiment [2], the Prob-Test was -0.288. This molecule had a Prob-Naive in experiment [3] of -0.471. The molecule also gave a Prob-Train in experiment [4] of -0.0957.

For `Cn1cc(-c2cnn3c(N)c(Br)c([C@@H]4CCCNC4)nc23)cn1`, in experiment [1], the OMR-Perf is 0.078. The same molecule had a Prob-Test in experiment [2] of 0.0678. This molecule also showed a Prob-Naive in experiment [3] of 0.515. In addition, the Prob-Train in experiment [4] amounted to 0.12.

In experiment [1], `CCOc1cc(N)c(Cl)cc1C(=O)NCC1CN(Cc2ccc(F)cc2)CCO1.O=C(O)CC(O)(CC(=O)O)C(=O)O` (stereo unspecified) [Mosapride Citrate] had an OMR-Perf of -1.03. The same molecule had a Prob-Test in experiment [2] of -1.36. Further, the Prob-Naive in experiment [3] stood at 0.153. In experiment [4], this molecule came in with a Prob-Train of -0.929.

On to `CO/N=C(/C(=O)N[C@H]1C(=O)N2C(C(=O)O)=C(Cn3ccc(=N)n3CCO)CS[C@H]12)c1csc(N)n1.O=S(=O)(O)O` [Cefoselis Sulfate], for which, in experiment [1], the OMR-Perf is 0.96. In addition, the Prob-Test in experiment [2] came to 0.185. The Prob-Naive in experiment [3] was determined as 0.0774. In experiment [4], this molecule had a Prob-Train of 0.214.

The molecule `Nc1cccc2c1CN(C1CCC(=O)NC1=O)C2=O` (stereo unspecified) [Lenalidomide (CC-5013)] had an OMR-Perf in experiment [1] of -0.528. Further, in experiment [2], the Prob-Test is -0.0369. Moreover, in experiment [3], the Prob-Naive is -0.162. In experiment [4], this molecule returned a Prob-Train of -0.316.

Regarding `CC(C(=O)O)c1ccc2c(c1)[nH]c1ccc(Cl)cc12` (stereo unspecified) [Carprofen], the OMR-Perf in experiment [1] stood at 0.585. The molecule further had a Prob-Test in experiment [2] of 0.204. The molecule further displayed a Prob-Naive in experiment [3] of -0.095. The molecule also came in with a Prob-Train in experiment [4] of -0.36.

For `COc1cc2ncnc(Nc3ccc(F)c(Cl)c3)c2cc1NC(=O)/C=C/CN1CCCCC1`, the OMR-Perf in experiment [1] is -0.355. For the same molecule, the Prob-Test in experiment [2] was -0.81. Also, in experiment [3], the Prob-Naive was -0.476. This molecule displayed a Prob-Train in experiment [4] of -0.594.

The molecule `CCOC(=O)[C@H](CCc1ccccc1)N[C@H]1CS[C@H](c2cccs2)CN(CC(=O)O)C1=O.Cl` [Temocapril HCl] displayed an OMR-Perf in experiment [1] of -0.206. This molecule displayed a Prob-Test in experiment [2] of -0.158. This molecule had a Prob-Naive in experiment [3] of 0.338. The Prob-Train in experiment [4] is -0.139.

For the molecule `CC(=O)NS(=O)(=O)c1ccc(NC(=O)c2ccccc2C(=O)O)cc1` [Phthalylsulfacetamide], the OMR-Perf in experiment [1] came to 0.482. In experiment [2], this molecule showed a Prob-Test of -0.0998. Also, the Prob-Naive in experiment [3] is -0.557. Moreover, the Prob-Train in experiment [4] was -0.0961.

`CCn1c(=O)c2c(nc(/C=C/c3ccc(OC)c(OC)c3)n2C)n(CC)c1=O` [Istradefylline]: the OMR-Perf in experiment [1] is 0.239. In addition, the Prob-Test in experiment [2] is -0.0247. The Prob-Naive in experiment [3] is 0.42. In experiment [4], this molecule had a Prob-Train of -1.25.

In experiment [1], `COc1c(O)cc2c(c1O)[C@@H]1O[C@H](CO)[C@@H](O)[C@H](O)[C@H]1OC2=O` [Bergenin] gave an OMR-Perf of 0.0721. The molecule also yielded a Prob-Test in experiment [2] of 0.0676. The Prob-Naive in experiment [3] was 0.0956. In addition, the Prob-Train in experiment [4] was -0.0105.

Regarding `OC[C@H]1O[C@@H](Oc2ccc(O)cc2)[C@H](O)[C@@H](O)[C@@H]1O` [Arbutin], in experiment [1], the OMR-Perf was -0.114. The Prob-Test in experiment [2] came out at 0.427. In experiment [3], the Prob-Naive was -0.0225. In experiment [4], this molecule came in with a Prob-Train of 0.16.

In the case of `COc1ccc(/C=C/C(=O)Nc2ccccc2C(=O)O)cc1OC` [Tranilast], the OMR-Perf in experiment [1] was -0.338. In experiment [2], the Prob-Test is -0.41. In experiment [3], the Prob-Naive was -0.0365. In experiment [4], this molecule registered a Prob-Train of -0.775.

On to `CN(CCOc1ccc(NS(C)(=O)=O)cc1)CCc1ccc(NS(C)(=O)=O)cc1` [Dofetilide], for which, in experiment [1], the OMR-Perf is -0.716. In experiment [2], this molecule registered a Prob-Test of -0.513. This molecule also displayed a Prob-Naive in experiment [3] of 0.471. Moreover, in experiment [4], the Prob-Train was -0.311.

The molecule `CC(=O)[N-]S(=O)(=O)c1ccc(N)cc1.[Na+]` [Sulfacetamide Sodium] had an OMR-Perf in experiment [1] of -0.344. The Prob-Test in experiment [2] is 0.3. Further, the Prob-Naive in experiment [3] was 0.232. Further, in experiment [4], the Prob-Train is -0.00636.

For `O=C(c1ccc(F)cc1)N1CCC[C@H](c2nc(-c3ccc(F)cc3)no2)C1`, the OMR-Perf in experiment [1] was -2.42. Besides, in experiment [2], the Prob-Test is -1.04. Moreover, the Prob-Naive in experiment [3] was -2.7. The molecule also returned a Prob-Train in experiment [4] of -1.98.

Take `CN(C)CCc1c[nH]c2ccc(C[C@H]3COC(=O)N3)cc12` [Zolmitriptan]: the OMR-Perf in experiment [1] is -0.431. In experiment [2], this molecule gave a Prob-Test of -0.433. In experiment [3], this molecule returned a Prob-Naive of -0.307. Moreover, the Prob-Train in experiment [4] was -0.386.

Regarding `OC(Cn1cncn1)(Cn1cncn1)c1ccc(F)cc1F` [Fluconazole], the OMR-Perf in experiment [1] came to 0.188. The Prob-Test in experiment [2] amounted to 0.118. The same molecule showed a Prob-Naive in experiment [3] of 0.549. The molecule further yielded a Prob-Train in experiment [4] of 0.788.

The molecule `CCc1cc2c(cc1N1CCC(N3CCOCC3)CC1)C(C)(C)c1[nH]c3cc(C#N)ccc3c1C2=O` came in with an OMR-Perf in experiment [1] of 0.407. The Prob-Test in experiment [2] was -0.51. Also, in experiment [3], the Prob-Naive was determined as 0.538. In addition, the Prob-Train in experiment [4] was found to be 0.221.

In experiment [1], `O=C(CCCN1CC=C(n2c(=O)[nH]c3ccccc32)CC1)c1ccc(F)cc1` [Droperidol] came in with an OMR-Perf of -1.03. The Prob-Test in experiment [2] was -0.249. For the same molecule, the Prob-Naive in experiment [3] was -0.0456. The molecule further returned a Prob-Train in experiment [4] of -0.0214.

`Cc1c(C(=O)Nc2ccc(N3CCC(N4CCOCC4)CC3)c(C#N)c2)cnn1-c1ccc(Cl)cc1` registered an OMR-Perf in experiment [1] of -0.749. The Prob-Test in experiment [2] is -1.26. Further, the Prob-Naive in experiment [3] is -0.0588. Further, in experiment [4], the Prob-Train was 0.0601.

Values taken from the supplement of paper PMC10727501.
